Counter-ions that a name gives are not always drawn. This is one part of the list. Many values rest on one well or one pass, so single values are uncertain.
Columns and labels:
A2780 = assay: cell growth inhibition ratio vs untreated control (CCK8); higher = stronger inhibition of cell viability; conditions: 10 µM; 48 h
Protocol: (§1)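 Natural product library (Topscience) screened at 10 µM final concentration for 48 h on ovarian cancer A2780 cells and patient-derived ovarian cancer cells (PDC) in 96-well plates; viability read by CCK8 and reported as inhibition ratio (%) relative to untreated control. Single-dose primary screen.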

[1] = test system: patient-derived ovarian cancer cells (PDC); assay: as above; conditions: 10 µM; 48 h
Protocol: as §1

Compound | cell growth inhibition ratio (A2780) | cell growth inhibition ratio [1]
COc1ccc(CC(=O)O)cc1OC [Homoveratrumic acid] | -9.83% | 13.7%
CC1=CC(=O)CC(C)(C)[C@@]1(O)/C=C/C(C)=C\C(=O)O [Abscisic acid] | -1.65% | -7.47%
NCCCS(=O)(=O)O [Homotaurine] | 10.5% | -6.2%
O=C(O)C1=CO[C@@H](O[C@@H]2O[C@H](CO)[C@@H](O)[C@H](O)[C@H]2O)[C@@H]2C(CO)=CC[C@H]12 [Geniposidic Acid] | 0.207% | -11.2%
Nc1ccccc1C(=O)CC(N)C(=O)O (stereo not drawn) [Kynurenine] | 1.58% | -7.19%
Cn1c(=O)c2nc[nH]c2n(C)c1=O [Theophylline] | 0.99% | 7.8%
CC(=O)O[C@]1(C(C)=O)CC[C@H]2[C@@H]3C[C@H](C)C4=CC(=O)CC[C@]4(C)[C@H]3CC[C@@]21C [Farlutin] | 27.4% | 20.3%
O=C(CCc1ccc(O)cc1)c1c(O)cc(O)cc1O [Phloretin] | 4.26% | 13.5%
CC(C)=CCc1cc2c(cc1O)O[C@H](c1ccc(O)cc1)CC2=O [Bavachin] | 2.65% | 14.3%
OC[C@H]1O[C@@H](O[C@@H]2OC=C[C@H]3[C@H](O)[C@@H]4O[C@]4(CO)[C@@H]23)[C@H](O)[C@@H](O)[C@@H]1O [Catalpol] | -29.4% | -4.79%
CC(C)[C@@H]1CC[C@@H](C)C[C@H]1O [L-Menthol] | 2.34% | -5.3%
COc1cc(CNC(=O)CCCCCCC(C)C)ccc1O [Dihydrocapsaicin] | 17.4% | -2.7%
C=C1C(=O)O[C@@H]2C[C@@]3(C)CCCC(=C)[C@@H]3C[C@H]12 [Isoalantolactone] | 38.9% | 5.71%
COc1ccc(-c2cc(=O)c3c(O)cc(O)cc3o2)cc1O [Diosmetin] | 86.5% | 73.2%
COc1c(O)cc2oc3cc(O)c(CC=C(C)C)c(O)c3c(=O)c2c1CC=C(C)C [Mangostin] | 26.4% | 6.2%
COc1ccc(-c2cc(=O)c3c(OC)c(OC)c(OC)c(OC)c3o2)cc1OC [Nobiletin] | 18.2% | 1.79%
CCOC(=O)c1ccc(O)c(OC)c1 [Ethyl Vanillate] | -15% | 9.04%
O[C@H]1[C@H](O)[C@@H](O)[C@H](O)[C@@H](O)[C@H]1O [Inositol] | 11.1% | 3.65%
N[C@@H](C=O)[C@@H](O)[C@H](O)[C@H](O)CO [Glucosamine hydrochloride] | 4.38% | 2.28%
OC[C@H]1O[C@H](OCC2O[C@@H](O)[C@H](O)[C@@H](O)[C@@H]2O)[C@H](O)[C@@H](O)[C@H]1O (stereo partly drawn) [Melibiose] | -1.08% | -9.5%

Compound | cell growth inhibition ratio (A2780) | cell growth inhibition ratio [1]
CC1(C)CCC[C@]2(C)[C@H]3CC(=O)O[C@]3(C)CC[C@@H]12 [Sclareolide] | 2.75% | -13.6%
CC1(C)CC[C@]2(C(=O)O)CC[C@]3(C)C(=CC[C@@H]4[C@@]5(C)C[C@@H](O)[C@H](O)C(C)(C)[C@@H]5CC[C@]43C)[C@@H]2C1 [Maslinic acid] | 24% | 4.45%
C[n+]1cccc(C(=O)[O-])c1 [Trigonelline hydrochloride] | -0.946% | -3.3%
COc1c2c(cc3oc(C)cc(=O)c13)OC(C(C)(C)O[C@@H]1O[C@H](CO)[C@@H](O)[C@H](O)[C@H]1O)C2 (stereo partly drawn) [5-O-Methylvisammioside] | -3.28% | 5.37%
NCCc1ccc(O)c(O)c1 [Dopamine hydrochloride] | -24.8% | 5.07%
O=C(O)CCc1ccc(O)cc1O [Hydroumbellic acid] | 12.3% | 7.02%
C[C@@H]1CC[C@]2(C(=O)O[C@@H]3O[C@H](CO)[C@@H](O)[C@H](O)[C@H]3O)CC[C@]3(C)C(=CC[C@@H]4[C@@]5(C)CC[C@H](O)[C@@](C)(CO)[C@@H]5CC[C@]43C)[C@@H]2[C@]1(C)O [Pedunculoside] | 1.05% | 22.3%
Nc1ccn([C@@H]2O[C@H](CO)[C@@H](O)[C@H]2O)c(=O)n1 [Cytidine] | 8.12% | 2.91%
COc1c2occc2c(OC)c2c(=O)cc(C)oc12 [Khellin] | 3.65% | 12.5%
CC1(C)CC[C@]2(C(=O)O)CC[C@]3(C)C(=CC[C@@H]4[C@@]5(C)CC[C@H](O[C@@H]6O[C@H](C(=O)O)[C@@H](O)[C@H](O[C@@H]7OC[C@@H](O)[C@H](O)[C@H]7O)[C@H]6O)C(C)(C)[C@@H]5CC[C@]43C)[C@@H]2C1 [Momordin Ic] | 12.2% | 3.26%
O=C(O)CCCC[C@@H]1SC[C@@H]2NC(=O)N[C@@H]21 [D-Biotin] | 0.786% | 13.5%
O=c1c(O)c(-c2ccc(O)c(O)c2)oc2cc(O)ccc12 [Fisetin] | -12.4% | -5.55%
CC[C@H](CC[C@@H](C)[C@H]1CC[C@H]2[C@@H]3CC=C4C[C@@H](O)CC[C@]4(C)[C@H]3CC[C@]12C)C(C)C [Beta-Sitosterol] | -6.4% | 2.04%
O=c1c(O[C@@H]2O[C@H](CO)[C@H](O)[C@H](O)[C@H]2O)c(-c2ccc(O)c(O)c2)oc2cc(O)cc(O)c12 [Hyperoside] | -1.4% | -0.488%
Cc1cc(O)cc(O[C@@H]2O[C@H](CO)[C@@H](O)[C@H](O)[C@H]2O)c1 [Orcinol glucoside] | 23.5% | 8.13%
CC[C@H](C)C(=O)O[C@H]1CCC=C2C=C[C@H](C)[C@H](CC[C@@H]3C[C@@H](O)CC(=O)O3)[C@H]21 [Mevastatin] | 65.8% | -36.1%
C[C@H]1[C@@H](O)O[C@@H]2O[C@@]3(C)CC[C@H]4[C@H](C)CC[C@@H]1[C@@]24OO3 [Dihydroartemisinin] | 71.1% | 9.62%
CC(C)=CCC/C(C)=C/CC/C(C)=C/CC/C(C)=C/CC/C(C)=C/CC/C(C)=C/CC/C(C)=C/CC/C(C)=C/CC/C(C)=C/CO [Solanesol] | 9.12% | 9.11%
O=c1c(-c2ccc(O)cc2)coc2cc(O)cc(O)c12 [Genistein] | 15.9% | -49.2%
COc1ccc2cc1Oc1ccc(cc1)C[C@H]1c3cc(c(OC)cc3CCN1C)Oc1c(O)c(OC)cc3c1[C@H](C2)N(C)CC3 [(+)-Fangchinoline] | 91.7% | 78.1%

Filtered by structure: those above with an aryl methoxy group (9)
Compound | cell growth inhibition ratio (A2780) | cell growth inhibition ratio [1]
COc1ccc(CC(=O)O)cc1OC [Homoveratrumic acid] | -9.83% | 13.7%
COc1cc(CNC(=O)CCCCCCC(C)C)ccc1O [Dihydrocapsaicin] | 17.4% | -2.7%
COc1ccc(-c2cc(=O)c3c(O)cc(O)cc3o2)cc1O [Diosmetin] | 86.5% | 73.2%
COc1c(O)cc2oc3cc(O)c(CC=C(C)C)c(O)c3c(=O)c2c1CC=C(C)C [Mangostin] | 26.4% | 6.2%
COc1ccc(-c2cc(=O)c3c(OC)c(OC)c(OC)c(OC)c3o2)cc1OC [Nobiletin] | 18.2% | 1.79%
CCOC(=O)c1ccc(O)c(OC)c1 [Ethyl Vanillate] | -15% | 9.04%
COc1c2c(cc3oc(C)cc(=O)c13)OC(C(C)(C)O[C@@H]1O[C@H](CO)[C@@H](O)[C@H](O)[C@H]1O)C2 (stereo partly drawn) [5-O-Methylvisammioside] | -3.28% | 5.37%
COc1c2occc2c(OC)c2c(=O)cc(C)oc12 [Khellin] | 3.65% | 12.5%
COc1ccc2cc1Oc1ccc(cc1)C[C@H]1c3cc(c(OC)cc3CCN1C)Oc1c(O)c(OC)cc3c1[C@H](C2)N(C)CC3 [(+)-Fangchinoline] | 91.7% | 78.1%

Pulled one by one from the list above:
Compound | cell growth inhibition ratio (A2780) | cell growth inhibition ratio [1]
CC[C@H](C)C(=O)O[C@H]1CCC=C2C=C[C@H](C)[C@H](CC[C@@H]3C[C@@H](O)CC(=O)O3)[C@H]21 [Mevastatin] | 65.8% | -36.1%
C[C@H]1[C@@H](O)O[C@@H]2O[C@@]3(C)CC[C@H]4[C@H](C)CC[C@@H]1[C@@]24OO3 [Dihydroartemisinin] | 71.1% | 9.62%

The list continues.

Compound | cell growth inhibition ratio (A2780) | cell growth inhibition ratio [1]
O=C1O[C@H]([C@H](O)CO)C([O-])=C1O.[Na+] [Sodium erythorbate] | 4.98% | -16.8%
CC1C(=O)OC2C(O)C34C5CC(C(C)(C)C)C36C(OC(=O)C6O)OC4(C(=O)O5)C12O (stereo not drawn) [Ginkgolide B] | 13.2% | -3.87%
C[C@@H]1NC(=O)[C@@H](N)CNC(=O)[C@H](C2CCNC(=N)N2)NC(=O)/C(=C/NC(N)=O)NC(=O)[C@H](CNC(=O)CC(N)CCCN)NC1=O.N=C1NCCC([C@@H]2NC(=O)/C(=C/NC(N)=O)NC(=O)[C@H](CNC(=O)CC(N)CCCN)NC(=O)[C@H](CO)NC(=O)[C@@H](N)CNC2=O)N1 (stereo partly drawn) [Capastat sulfate] | 9.32% | 10.2%
C[C@H](CCC(=O)NCCS(=O)(=O)O)[C@H]1CC[C@H]2[C@@H]3[C@@H](O)C[C@@H]4C[C@H](O)CC[C@]4(C)[C@H]3CC[C@]12C [Tauroursodeoxycholic Acid] | -4.4% | -5.04%
C[C@H]1O[C@H](O[C@@H]2[C@@H](O)[C@H](OCCc3ccc(O)c(O)c3)O[C@H](CO[C@H]3OCC(O)(CO)[C@@H]3O)[C@H]2OC(=O)/C=C/c2ccc(O)c(O)c2)[C@@H](O)[C@@H](O)[C@@H]1O (stereo partly drawn) [Forsythoside B] | 5.08% | -14.8%
CCCCCCCCCCCCCCCCCCOCC(O)CO (stereo not drawn) [Batyl alcohol] | 13.9% | 11.3%
CCOc1cc(C=O)ccc1OC(C)=O [Ethyl vanillin acetate] | -2.78% | 7.68%
COC(=O)[C@H]1[C@H]2C[C@@H]3c4[nH]c5cc(OC)ccc5c4CCN3C[C@H]2C[C@@H](OC(=O)c2cc(OC)c(OC)c(OC)c2)[C@@H]1OC [Reserpine] | 28.9% | 4.23%
COc1cc(/C=C/CO)cc(OC)c1O[C@@H]1O[C@H](CO)[C@@H](O)[C@H](O)[C@H]1O [Syringin] | 5.06% | -3.8%
CC(=O)O[C@@]12CO[C@@H]1C[C@H](O)[C@@]1(C)C(=O)[C@H](O)C3=C(C)[C@@H](OC(=O)[C@H](O)[C@@H](NC(=O)OC(C)(C)C)c4ccccc4)C[C@@](O)([C@@H](OC(=O)c4ccccc4)[C@H]21)C3(C)C [Docetaxel] | 79% | 63.7%
C=C1CC[C@H](O)C/C1=C/C=C1\CCC[C@]2(C)[C@@H]([C@H](C)/C=C/[C@H](C)C(C)C)CC[C@@H]12 [Vitamin D2] | 3.27% | 16.1%
O=C(/C=C/c1ccc(O)cc1)c1ccccc1 [4-Hydroxychalcone] | -21.7% | -16.1%
O=C(O)c1cc(O)ccc1O [Gentisic acid] | 9.34% | 9.7%
O=C1CC(c2ccccc2)Oc2ccccc21 (stereo not drawn) [Flavanone] | 9.01% | 4.99%
O=C1C[C@@H](c2ccc(O[C@@H]3O[C@H](CO)[C@@H](O)[C@H](O)[C@H]3O)cc2)Oc2cc(O)ccc21 [Liquiritin] | -5.2% | -1.87%
C[C@]12CC[C@@H]3c4ccc(O)cc4CC[C@H]3[C@@H]1CCC2=O [Aquacrine] | 8.07% | 8.59%
CC1=CC(=O)c2ccccc2C1=O [Menadione] | 84.2% | 26.2%
O=c1[nH]cnc2c1ncn2[C@@H]1O[C@H](CO)[C@@H](O)[C@H]1O [Inosine] | 13.2% | 1.24%
CC[C@H]1OC(=O)[C@H](C)[C@@H](O[C@H]2C[C@@](C)(OC)[C@@H](O)[C@H](C)O2)[C@H](C)[C@@H](O[C@@H]2O[C@H](C)C[C@H](N(C)C)[C@H]2O)[C@](C)(O)C[C@@H](C)C(=O)[C@H](C)[C@@H](O)[C@]1(C)O [Erythromycin] | 3.15% | 4.22%
